# ± gives the standard deviation. Only a part is listed here, and it is no random draw. Many entries were measured with a wide error.
# Tested on: MIWI (PIWIL1) piRISC loaded with L1MC piRNA (30 nt)
# Test: pre-steady-state target cleavage rate (min^-1); MIWI and MILI are mouse PIWI proteins and EfPiwi is from a freshwater sponge; tags in brackets are library labels; higher = faster piRNA-guided slicing of the target
# Conditions: guide: L1MC piRNA 5'p-UAACUAAAUACUAUGCAAGCUGUAGGUCCU; auxiliary factor: none (no GTSF1)
# Outline: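 Cleave-'n-Seq: a transcribed, DNA-blocked target RNA library (0.1 nM) was mixed with 1 nM active affinity-purified piRISC carrying one synthetic guide, with or without 500 nM GTSF1 partner protein, in HEPES–potassium acetate buffer at 33 °C for 0–8 or 0–960 min. Uncleaved targets were sequenced and normalised to depth and to weakly complementary targets. Three trials were pooled, and k3 was capped at 0.0001 min^-1. The pre-steady-state cleavage rate came from a burst-and-steady-state fit.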
row,Sequence,pre-steady-state target cleavage rate
1,ACCUCCUACAGCUUGCAUAGUAUUUACAAA,0.00297 ± 0.0035
2,UCGACCUACAGCUUCCAUAGUAUUUAGUAA,0.002 ± 0.0043
3,UCCUGGAUGAGCUUGCAUAGUAUAAUCAAA [g8:g21:cont:t1A],0.00148 ± 0.0045
4,UCCUGGAUCACCUAGCAUAGUAUUUAGUUA,0.00264 ± 0.0027
5,AGGACCUACAGCUUGCAAUGUAUUUACAAA,0.00119 ± 0.0053
6,AGGACCUACAGCUUGCUAUGUAUUUAGAAA,0.000977 ± 0.0061
7,UCCACCUACAGCUUGCAUAGUUUUUACAAA,0.00116 ± 0.006
8,AGGACCUACAGCUUGCAUUCAAUUUAGUUA,0.00106 ± 0.0071
9,UGGACCUACAGCUUGCAAUCUAUUUAGAAA,0.000796 ± 0.0072
10,UCGACCUACUCGUUGCAUAGUAUUUACAAA,0.00163 ± 0.0027
11,UGGACCUACAGCUUGGUUAGUAUUUACAAA,0.00136 ± 0.0029
12,UCCUGGAUGUCGAACGAUAGUAUUAUGUUA,0.000178 ± 0.028
13,UCCACCUAGUGCUUGCAUAGUAUUUACAAA,0.00181 ± 0.0019
14,UCGACCUACAGCUACCAUAGUAUUUACAAA,0.000317 ± 0.0088
15,UCCACCUACAGCUUGCAUUGUAUUUUCAAA,0.00117 ± 0.0058
16,UCCUGGAUGUCGAACGAUAGUAUUUAGUAUA,0.00036 ± 0.013
17,UCGACCUACAGCUUGGUAAGUAUUUAGUUA,0.000843 ± 0.0058
18,UCGACCUACAGCUUGCAUACAAUUUUCAAA,0.0007 ± 0.011
19,AGGACCUACAGCUAGCAUAGUAUUUACAAA,0.00318 ± 0.0041

# Three records drawn at random from those above, as already listed:
row,Sequence,pre-steady-state target cleavage rate
2,UCGACCUACAGCUUCCAUAGUAUUUAGUAA,0.002 ± 0.0043
5,AGGACCUACAGCUUGCAAUGUAUUUACAAA,0.00119 ± 0.0053
17,UCGACCUACAGCUUGGUAAGUAUUUAGUUA,0.000843 ± 0.0058

# Following part.

row,Sequence,pre-steady-state target cleavage rate
1,UCCACCAACAGCUUGCAUAGUAUUUUCAAA,0.00226 ± 0.0039
2,AGGACCUACAGGAUGCAUAGUAUUUUCAAA,0.00114 ± 0.0048
3,UGGACCUACAGCUUCCAUAGUAUUUUGUUA,0.00119 ± 0.0045
4,UGGACCUACAGCUACGAUAGUAUUUACAAA,0.000633 ± 0.0084
5,UGGACCUACAGCUUGCAUUCAUAAAUCAAA [g13:g29:cont:t1A],0.000208 ± 0.016
6,UCCACCUAGUCCUUGCAUAGUAUUUACAAA,0.00207 ± 0.0024
7,UCCACCUACAGCUUGCAAUCUAUUUACAAA,0.000351 ± 0.015
8,UCGACCUACAGCUUGCUAAGUAUUUACAAA,0.00102 ± 0.0062
9,UCGACCUACAGCUUGCAUAGUAUAAUCAAA,0.000494 ± 0.009
10,UGGACCUACUCGUUGCAUAGUAUUUACAAA,0.0013 ± 0.0041
11,UCCUGGAUGUCGAACGUUAGUAUUUUCAUA,0.000105 ± 0.036
12,UGCACCUACAGCUUCCAUAGUAUUUAGUUA,0.00148 ± 0.0049
13,AGGACCUACAGGUUCCAUAGUAUUUAGUUA,0.0023 ± 0.0027
14,AGGACCUACAGCUUGCAUAGUAUAUACAAA,0.00196 ± 0.0051
15,UCGACCUACAGCUUGCAUAGAUAAAUCAAA [g11:g28:cont:t1A],0.000287 ± 0.013
16,AGGACCUACAGCUUGCAGUAGUAUUUAGUUA,0.000741 ± 0.013
17,UCCUGCUACAGCUUGACAUAGUAUUUAGUUA,0.00226 ± 0.0025
18,UCCUGGUACAGCUUGCAAUGUAUUUACAAA,0.0024 ± 0.0038
19,UCCUGGAUGUCGAACGAAAGUAUUAAGUUA,0.00017 ± 0.029

# — the supplement of paper PMC10338343
